Laboratory results reported in PMC10173277.
These are yes or no findings as the source states them, for the method shown. Some binding calls cover weakened binding; strength is not graded here. Tags and fused reporters may be left off the sequences shown.

Sequences of proteins named here, by UniProt entry; tags and fusion partners are left off. A change or cut given only in a name is not applied to a line headed by its entry.
UniProt P02453: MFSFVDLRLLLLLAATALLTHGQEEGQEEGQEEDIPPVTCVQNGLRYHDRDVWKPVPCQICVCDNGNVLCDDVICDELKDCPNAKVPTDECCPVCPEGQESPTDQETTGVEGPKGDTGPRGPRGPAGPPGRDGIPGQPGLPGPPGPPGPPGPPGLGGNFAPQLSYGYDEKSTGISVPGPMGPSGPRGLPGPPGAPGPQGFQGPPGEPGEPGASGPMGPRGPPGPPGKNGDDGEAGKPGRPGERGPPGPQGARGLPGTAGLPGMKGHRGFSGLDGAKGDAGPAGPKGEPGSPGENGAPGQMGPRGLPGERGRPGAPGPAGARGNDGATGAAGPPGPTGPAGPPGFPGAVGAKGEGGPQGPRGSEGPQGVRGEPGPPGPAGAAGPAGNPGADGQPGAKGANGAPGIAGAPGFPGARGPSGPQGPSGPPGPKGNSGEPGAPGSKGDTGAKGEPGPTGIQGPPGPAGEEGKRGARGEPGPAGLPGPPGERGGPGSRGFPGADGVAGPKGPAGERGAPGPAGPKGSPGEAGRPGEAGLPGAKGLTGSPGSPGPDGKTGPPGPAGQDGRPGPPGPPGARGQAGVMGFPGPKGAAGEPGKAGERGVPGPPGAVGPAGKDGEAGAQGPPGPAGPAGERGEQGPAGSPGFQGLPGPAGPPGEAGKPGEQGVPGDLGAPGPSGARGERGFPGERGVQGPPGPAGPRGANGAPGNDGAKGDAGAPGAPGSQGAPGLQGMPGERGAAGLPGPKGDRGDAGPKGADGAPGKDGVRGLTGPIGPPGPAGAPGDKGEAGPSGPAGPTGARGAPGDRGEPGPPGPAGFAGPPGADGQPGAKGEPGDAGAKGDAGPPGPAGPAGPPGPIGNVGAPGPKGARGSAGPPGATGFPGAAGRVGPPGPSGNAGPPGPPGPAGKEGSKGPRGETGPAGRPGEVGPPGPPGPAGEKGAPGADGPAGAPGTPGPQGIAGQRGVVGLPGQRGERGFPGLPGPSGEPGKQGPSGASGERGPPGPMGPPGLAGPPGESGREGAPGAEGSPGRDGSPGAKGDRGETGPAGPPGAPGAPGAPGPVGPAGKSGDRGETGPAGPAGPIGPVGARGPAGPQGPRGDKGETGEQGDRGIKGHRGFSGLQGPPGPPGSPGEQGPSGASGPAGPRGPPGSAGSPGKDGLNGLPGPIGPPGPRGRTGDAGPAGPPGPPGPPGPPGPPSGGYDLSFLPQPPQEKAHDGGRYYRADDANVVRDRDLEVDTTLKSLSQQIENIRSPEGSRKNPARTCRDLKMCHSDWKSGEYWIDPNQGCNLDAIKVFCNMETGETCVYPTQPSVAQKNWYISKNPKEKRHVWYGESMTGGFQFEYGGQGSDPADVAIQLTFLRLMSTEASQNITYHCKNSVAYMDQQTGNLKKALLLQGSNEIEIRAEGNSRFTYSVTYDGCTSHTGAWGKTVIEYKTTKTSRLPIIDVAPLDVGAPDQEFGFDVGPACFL
UniProt P02465: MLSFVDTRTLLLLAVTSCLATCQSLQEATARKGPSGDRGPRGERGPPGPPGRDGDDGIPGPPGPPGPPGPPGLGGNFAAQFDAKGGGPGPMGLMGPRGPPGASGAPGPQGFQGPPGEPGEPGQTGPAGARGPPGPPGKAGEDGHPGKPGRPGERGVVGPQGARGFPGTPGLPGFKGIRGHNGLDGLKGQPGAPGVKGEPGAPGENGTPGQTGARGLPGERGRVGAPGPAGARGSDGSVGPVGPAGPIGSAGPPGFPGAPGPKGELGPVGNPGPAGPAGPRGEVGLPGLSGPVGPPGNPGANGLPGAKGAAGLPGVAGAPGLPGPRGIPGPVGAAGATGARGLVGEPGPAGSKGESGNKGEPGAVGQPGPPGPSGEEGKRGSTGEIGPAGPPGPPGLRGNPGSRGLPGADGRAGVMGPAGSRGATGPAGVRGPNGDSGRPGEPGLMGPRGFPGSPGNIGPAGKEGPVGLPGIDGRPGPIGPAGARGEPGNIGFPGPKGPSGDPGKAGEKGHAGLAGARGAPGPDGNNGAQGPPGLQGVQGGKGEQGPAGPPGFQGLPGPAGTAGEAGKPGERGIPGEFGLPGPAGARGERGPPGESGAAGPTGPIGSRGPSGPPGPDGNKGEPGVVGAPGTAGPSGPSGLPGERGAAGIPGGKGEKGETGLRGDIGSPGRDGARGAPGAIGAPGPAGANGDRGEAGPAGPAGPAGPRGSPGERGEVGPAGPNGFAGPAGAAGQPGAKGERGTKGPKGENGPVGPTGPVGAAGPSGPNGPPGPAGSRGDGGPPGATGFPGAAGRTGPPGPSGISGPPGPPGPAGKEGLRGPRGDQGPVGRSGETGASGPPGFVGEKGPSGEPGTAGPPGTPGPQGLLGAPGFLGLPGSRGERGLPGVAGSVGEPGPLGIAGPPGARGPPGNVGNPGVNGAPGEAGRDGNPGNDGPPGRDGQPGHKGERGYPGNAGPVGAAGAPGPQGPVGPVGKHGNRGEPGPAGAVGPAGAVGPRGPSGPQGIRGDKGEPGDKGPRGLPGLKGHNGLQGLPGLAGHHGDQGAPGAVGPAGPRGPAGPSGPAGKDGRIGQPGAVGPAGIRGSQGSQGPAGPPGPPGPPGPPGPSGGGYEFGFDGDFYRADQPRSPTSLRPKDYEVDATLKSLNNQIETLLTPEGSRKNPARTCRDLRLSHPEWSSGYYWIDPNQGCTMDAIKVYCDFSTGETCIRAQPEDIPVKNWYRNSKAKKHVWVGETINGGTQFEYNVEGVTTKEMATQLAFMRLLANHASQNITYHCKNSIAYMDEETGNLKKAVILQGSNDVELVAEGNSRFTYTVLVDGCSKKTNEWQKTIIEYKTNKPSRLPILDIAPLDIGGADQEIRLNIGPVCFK

Target: collagen type I, bovine tendon, as absorbable collagen sponge (ACS) (bovine) (UniProt P02453+P02465)
Experiment: fluorescence microscopy of the sponge; ACS inside polyimide implant tubes submerged in Dylight 488 rhBMP-2 for 1 h, rinsed with water to remove unbound rhBMP-2; both purified

B1: recombinant human bone morphogenic protein 2, tagged with Dylight 488 (ligand, UniProt P12643 283-396)
chain: QAKHKQRKRLKSSCKRHPLYVDFSDVGWNDWIVAPPGYHAFYCHGECPFPLADHLNSTNHAIVQTLVNSVNSKIPKACCVPTELSAISMLYLDENEKVVLKNYQDMVVEGCGCR
modifications: Dylight 488 (amino reactive NHS ester dye)
With B1 the binding was “binds”.
